Results from doi:10.1101/2025.03.31.646364.
These are yes or no findings as the source states them, for the method shown. Binding seen in cells or lysates may run through a third protein. Some entries that bind do so weakly or less than the wild type.

Biological target: Rheb (Ras homolog enriched in brain), endogenous in HeLa cells (human (endogenous in HeLa)) (UniProt Q15382)
Test: co-IP

B1: SIRT2 (Sirtuin 2), endogenous in HeLa cells (protein, UniProt Q8IXJ6 1-389)
chain: MAEPDPSHPLETQAGKVQEAQDSDSDSEGGAAGGEADMDFLRNLFSQTLSLGSQKERLLDELTLEGVARYMQSERCRRVICLVGAGISTSAGIPDFRSPSTGLYDNLEKYHLPYPEAIFEISYFKKHPEPFFALAKELYPGQFKPTICHYFMRLLKDKGLLLRCYTQNIDTLERIAGLEQEDLVEAHGTFYTSHCVSASCRHEYPLSWMKEKIFSEVTPKCEDCQSLVKPDIVFFGESLPARFFSCMQSDFLKVDLLLVMGTSLQVQPFASLISKAPLSTPRLLINKEKAGQSDPFLGMIMGLGGGMDFDSKKAYRDVAWLGECDQGCLALAELLGWKKELEDLVRREHASIDAQSGAGVPNPSTSASPKKSPPPAKDEARTTEREKPQ
binding: binds
